Measurements published in the supplement of paper PMC10849652.
The other results are listed elsewhere or left out.

The chains behind the UniProt entries cited, without tags or fusion partners. Where a name states a change or a piece, a line headed by the entry shows the natural chain unless it says otherwise.
UniProt Q6UX04: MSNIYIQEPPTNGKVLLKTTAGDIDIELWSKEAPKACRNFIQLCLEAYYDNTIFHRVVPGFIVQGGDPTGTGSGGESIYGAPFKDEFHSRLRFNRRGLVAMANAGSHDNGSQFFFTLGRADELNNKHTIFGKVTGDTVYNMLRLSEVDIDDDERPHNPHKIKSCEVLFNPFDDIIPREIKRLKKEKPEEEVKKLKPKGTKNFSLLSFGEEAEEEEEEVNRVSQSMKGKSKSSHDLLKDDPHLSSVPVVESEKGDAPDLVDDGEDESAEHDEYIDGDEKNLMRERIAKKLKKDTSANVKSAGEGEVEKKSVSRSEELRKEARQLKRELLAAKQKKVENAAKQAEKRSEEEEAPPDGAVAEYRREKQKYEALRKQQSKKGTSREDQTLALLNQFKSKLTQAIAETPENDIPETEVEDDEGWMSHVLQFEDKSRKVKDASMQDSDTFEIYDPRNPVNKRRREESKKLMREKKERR
UniProt Q5TZA2: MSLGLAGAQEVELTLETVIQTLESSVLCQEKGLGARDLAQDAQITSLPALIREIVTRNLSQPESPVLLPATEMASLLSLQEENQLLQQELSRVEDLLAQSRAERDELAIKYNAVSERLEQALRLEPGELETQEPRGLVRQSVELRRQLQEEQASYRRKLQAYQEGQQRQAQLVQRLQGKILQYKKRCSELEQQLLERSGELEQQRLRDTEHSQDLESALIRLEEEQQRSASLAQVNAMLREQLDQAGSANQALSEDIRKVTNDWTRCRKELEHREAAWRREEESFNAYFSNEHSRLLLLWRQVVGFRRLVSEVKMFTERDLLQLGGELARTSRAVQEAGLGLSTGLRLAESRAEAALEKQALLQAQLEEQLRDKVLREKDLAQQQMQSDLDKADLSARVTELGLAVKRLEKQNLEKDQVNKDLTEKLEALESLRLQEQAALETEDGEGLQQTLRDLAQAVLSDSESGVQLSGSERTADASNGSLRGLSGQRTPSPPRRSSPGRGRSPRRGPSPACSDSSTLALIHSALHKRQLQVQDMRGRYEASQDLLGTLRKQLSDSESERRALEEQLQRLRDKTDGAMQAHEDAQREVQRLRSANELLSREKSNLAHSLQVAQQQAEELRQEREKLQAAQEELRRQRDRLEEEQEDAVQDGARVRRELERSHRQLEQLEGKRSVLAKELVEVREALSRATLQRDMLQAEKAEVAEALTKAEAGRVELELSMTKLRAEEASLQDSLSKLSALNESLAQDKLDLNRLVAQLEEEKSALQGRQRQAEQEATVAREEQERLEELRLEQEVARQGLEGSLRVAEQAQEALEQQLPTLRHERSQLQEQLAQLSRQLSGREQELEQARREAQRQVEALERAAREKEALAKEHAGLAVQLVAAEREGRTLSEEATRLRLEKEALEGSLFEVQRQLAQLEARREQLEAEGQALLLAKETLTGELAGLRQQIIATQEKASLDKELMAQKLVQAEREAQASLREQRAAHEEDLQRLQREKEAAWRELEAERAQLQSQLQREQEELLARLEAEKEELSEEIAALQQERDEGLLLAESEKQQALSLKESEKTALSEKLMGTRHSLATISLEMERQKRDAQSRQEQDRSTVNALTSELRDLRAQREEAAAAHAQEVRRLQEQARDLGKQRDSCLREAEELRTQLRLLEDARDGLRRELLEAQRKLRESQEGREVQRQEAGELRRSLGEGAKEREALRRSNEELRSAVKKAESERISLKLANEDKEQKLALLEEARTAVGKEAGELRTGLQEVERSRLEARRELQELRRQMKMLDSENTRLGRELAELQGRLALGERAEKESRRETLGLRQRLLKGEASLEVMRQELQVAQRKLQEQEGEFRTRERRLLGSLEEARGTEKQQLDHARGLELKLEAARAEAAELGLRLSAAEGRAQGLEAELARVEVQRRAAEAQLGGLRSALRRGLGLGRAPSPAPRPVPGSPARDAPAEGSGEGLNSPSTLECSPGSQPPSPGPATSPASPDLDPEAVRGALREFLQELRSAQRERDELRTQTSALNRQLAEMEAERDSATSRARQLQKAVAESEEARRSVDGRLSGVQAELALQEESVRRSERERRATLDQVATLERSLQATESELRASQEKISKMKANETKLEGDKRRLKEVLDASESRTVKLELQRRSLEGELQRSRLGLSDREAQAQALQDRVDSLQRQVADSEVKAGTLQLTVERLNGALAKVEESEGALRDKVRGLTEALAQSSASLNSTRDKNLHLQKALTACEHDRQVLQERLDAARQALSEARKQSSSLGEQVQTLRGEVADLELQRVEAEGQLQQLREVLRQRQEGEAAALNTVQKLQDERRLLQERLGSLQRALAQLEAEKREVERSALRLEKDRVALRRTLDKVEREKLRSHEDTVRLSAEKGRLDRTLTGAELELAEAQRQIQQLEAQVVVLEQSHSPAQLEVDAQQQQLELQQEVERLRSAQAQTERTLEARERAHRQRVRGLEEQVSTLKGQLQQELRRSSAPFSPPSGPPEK
UniProt Q1MSJ5: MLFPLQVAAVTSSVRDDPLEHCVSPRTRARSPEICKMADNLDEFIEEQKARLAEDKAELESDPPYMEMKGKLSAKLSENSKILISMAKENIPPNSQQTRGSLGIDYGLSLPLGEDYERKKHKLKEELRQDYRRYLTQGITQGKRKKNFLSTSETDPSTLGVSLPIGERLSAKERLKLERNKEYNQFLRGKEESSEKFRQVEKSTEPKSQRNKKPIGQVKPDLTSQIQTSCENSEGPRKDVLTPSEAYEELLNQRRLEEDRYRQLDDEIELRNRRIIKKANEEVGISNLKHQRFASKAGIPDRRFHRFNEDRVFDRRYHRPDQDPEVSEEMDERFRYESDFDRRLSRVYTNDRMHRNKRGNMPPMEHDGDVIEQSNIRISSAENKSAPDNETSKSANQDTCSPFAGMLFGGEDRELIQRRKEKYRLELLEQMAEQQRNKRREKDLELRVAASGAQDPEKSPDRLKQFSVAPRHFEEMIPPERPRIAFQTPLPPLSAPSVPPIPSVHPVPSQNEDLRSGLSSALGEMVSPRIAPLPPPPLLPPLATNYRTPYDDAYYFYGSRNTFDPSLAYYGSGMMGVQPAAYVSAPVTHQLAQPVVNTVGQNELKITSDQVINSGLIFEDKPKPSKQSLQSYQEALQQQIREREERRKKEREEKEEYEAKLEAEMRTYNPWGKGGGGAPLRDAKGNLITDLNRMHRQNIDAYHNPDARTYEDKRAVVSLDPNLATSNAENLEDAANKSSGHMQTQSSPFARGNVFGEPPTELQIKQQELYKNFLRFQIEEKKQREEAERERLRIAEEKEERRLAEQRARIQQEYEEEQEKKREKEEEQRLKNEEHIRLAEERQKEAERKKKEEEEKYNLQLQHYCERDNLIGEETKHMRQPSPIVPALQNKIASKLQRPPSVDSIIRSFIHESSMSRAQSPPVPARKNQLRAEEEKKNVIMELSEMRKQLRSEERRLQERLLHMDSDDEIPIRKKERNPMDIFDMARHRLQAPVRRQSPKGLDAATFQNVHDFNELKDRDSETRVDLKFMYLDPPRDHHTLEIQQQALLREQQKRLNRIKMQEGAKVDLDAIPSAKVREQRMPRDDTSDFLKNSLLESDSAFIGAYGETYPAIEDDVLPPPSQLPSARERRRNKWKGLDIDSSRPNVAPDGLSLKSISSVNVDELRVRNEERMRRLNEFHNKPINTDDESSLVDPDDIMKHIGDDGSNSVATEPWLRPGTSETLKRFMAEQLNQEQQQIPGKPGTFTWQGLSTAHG
UniProt E9PJD7, whole entry, looked up: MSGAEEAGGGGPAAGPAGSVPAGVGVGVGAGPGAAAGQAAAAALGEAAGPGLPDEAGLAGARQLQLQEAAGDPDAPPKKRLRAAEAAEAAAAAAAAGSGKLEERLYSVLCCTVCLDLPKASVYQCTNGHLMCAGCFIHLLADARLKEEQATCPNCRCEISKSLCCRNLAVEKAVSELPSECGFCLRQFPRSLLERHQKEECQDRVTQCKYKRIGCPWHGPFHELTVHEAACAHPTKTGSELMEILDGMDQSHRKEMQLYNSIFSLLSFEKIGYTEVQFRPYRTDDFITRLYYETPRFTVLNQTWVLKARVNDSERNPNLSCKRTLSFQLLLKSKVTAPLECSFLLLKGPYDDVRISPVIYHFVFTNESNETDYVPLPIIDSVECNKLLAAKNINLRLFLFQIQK
UniProt Q9P021, whole entry, looked up: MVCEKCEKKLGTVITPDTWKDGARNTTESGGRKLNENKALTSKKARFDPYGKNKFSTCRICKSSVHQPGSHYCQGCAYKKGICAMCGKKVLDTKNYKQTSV
UniProt Q9UBT7: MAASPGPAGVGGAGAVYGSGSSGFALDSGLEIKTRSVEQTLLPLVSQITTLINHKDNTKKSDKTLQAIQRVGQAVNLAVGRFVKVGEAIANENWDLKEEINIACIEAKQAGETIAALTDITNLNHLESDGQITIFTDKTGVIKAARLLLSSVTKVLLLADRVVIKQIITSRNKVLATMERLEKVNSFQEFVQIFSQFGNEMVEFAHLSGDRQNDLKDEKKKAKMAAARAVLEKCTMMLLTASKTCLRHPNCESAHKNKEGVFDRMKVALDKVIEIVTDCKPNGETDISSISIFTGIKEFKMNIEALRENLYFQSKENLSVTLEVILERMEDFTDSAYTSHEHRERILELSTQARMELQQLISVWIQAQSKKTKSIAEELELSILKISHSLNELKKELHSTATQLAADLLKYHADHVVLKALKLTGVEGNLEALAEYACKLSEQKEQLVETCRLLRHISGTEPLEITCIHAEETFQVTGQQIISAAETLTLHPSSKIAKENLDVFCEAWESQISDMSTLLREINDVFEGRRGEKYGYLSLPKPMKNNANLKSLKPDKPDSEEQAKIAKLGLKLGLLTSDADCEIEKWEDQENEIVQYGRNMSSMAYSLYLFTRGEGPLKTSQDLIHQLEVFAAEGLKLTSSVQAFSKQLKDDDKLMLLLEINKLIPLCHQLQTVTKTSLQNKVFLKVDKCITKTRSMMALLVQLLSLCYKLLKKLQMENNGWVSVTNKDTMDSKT
UniProt P01037: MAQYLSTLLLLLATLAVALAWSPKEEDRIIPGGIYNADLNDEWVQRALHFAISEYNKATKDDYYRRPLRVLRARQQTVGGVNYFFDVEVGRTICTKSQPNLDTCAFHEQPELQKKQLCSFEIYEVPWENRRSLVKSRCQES
UniProt Q14894: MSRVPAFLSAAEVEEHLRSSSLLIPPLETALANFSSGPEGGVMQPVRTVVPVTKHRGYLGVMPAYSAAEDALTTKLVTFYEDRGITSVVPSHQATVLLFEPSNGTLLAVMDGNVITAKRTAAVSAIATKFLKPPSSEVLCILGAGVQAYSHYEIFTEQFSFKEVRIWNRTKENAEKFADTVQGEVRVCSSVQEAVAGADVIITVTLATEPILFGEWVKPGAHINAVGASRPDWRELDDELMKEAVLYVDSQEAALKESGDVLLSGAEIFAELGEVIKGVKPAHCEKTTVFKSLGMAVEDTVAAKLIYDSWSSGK
UniProt Q9GZU7: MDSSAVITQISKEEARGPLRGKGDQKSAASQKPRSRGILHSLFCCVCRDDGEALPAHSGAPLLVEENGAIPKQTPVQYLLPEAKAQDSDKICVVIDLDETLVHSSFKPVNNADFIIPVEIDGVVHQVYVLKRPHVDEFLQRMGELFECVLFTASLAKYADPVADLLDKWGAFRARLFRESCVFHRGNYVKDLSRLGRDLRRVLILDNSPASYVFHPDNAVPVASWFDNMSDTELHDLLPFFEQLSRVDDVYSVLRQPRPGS
UniProt Q16619: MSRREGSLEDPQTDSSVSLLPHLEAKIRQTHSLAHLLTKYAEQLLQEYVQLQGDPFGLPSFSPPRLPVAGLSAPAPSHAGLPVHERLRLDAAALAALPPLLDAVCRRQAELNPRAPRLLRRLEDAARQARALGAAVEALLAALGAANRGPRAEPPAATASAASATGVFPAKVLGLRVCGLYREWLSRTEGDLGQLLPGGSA
UniProt P48729: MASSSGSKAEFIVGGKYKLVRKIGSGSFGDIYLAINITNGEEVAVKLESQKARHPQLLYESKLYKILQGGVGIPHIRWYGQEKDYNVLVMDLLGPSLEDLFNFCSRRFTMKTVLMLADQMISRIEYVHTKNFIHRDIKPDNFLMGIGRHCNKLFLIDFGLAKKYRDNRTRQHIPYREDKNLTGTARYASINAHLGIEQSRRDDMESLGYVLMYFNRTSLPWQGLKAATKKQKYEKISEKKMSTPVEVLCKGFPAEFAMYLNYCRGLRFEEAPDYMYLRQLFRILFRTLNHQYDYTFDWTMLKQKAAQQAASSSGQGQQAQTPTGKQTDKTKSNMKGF
UniProt P25774, whole entry, looked up: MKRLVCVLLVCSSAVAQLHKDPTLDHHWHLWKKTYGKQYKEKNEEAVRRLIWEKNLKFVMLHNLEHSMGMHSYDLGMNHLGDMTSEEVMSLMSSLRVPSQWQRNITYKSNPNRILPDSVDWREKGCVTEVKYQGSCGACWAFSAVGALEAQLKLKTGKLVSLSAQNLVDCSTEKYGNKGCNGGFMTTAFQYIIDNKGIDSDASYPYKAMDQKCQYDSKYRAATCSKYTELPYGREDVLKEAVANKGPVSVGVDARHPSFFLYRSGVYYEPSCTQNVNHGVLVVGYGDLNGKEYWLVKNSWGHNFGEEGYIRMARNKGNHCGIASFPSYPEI

Assays:
Assay in all cases: log2 fold change, soluble protein after heating vs DMSO (PISA); higher = thermal stabilisation; K562 lysate, 10 uM; active = over 0.2 and 3.5 SD of the protein, either way, in both replicates (recomputed)
alvocidib = compound: CN1CC[C@H](c2c(O)cc(O)c3c(=O)cc(-c4ccccc4Cl)oc23)[C@H](O)C1 [alvocidib]
Summary of the method: (§1)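 Log-two fold change in thermal stability relative to solvent controls is reported from duplicates. For each sample, crude K562 extract from dounce-homogenised pellets in PBS pH 7.4 with 1 mM MgCl2, at 1 mg/mL protein, was treated with 10 μM compound for 30 min. Aliquots heated for 3 min across 48°C-58°C were pooled, brought to 0.5% NP-40 at 4°C and cleared at 21,000xg for 90 min. The supernatant was quantified by TMTpro 16plex LC-MS/MS with channel sums equalised.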

Tubastatin A = compound: CN1CCc2c(c3ccccc3n2Cc2ccc(C(=O)NO)cc2)C1 [Tubastatin A]
Summary of the method: as §1

[1] = compound: CNC(=O)C1=CC=CC=C1NC2=NC(=NC=C2Cl)NC3=C(C=C(C=C3)N4CCOCC4)OC
Summary of the method: as §1

defactinib = compound: CNC(=O)c1ccc(Nc2ncc(C(F)(F)F)c(NCc3nccnc3N(C)S(C)(=O)=O)n2)cc1 [defactinib]
Summary of the method: as §1

[2] = compound: CNc1nc(-c2ccc3c(N)n[nH]c3c2)cc(N2C[C@@H](C(=O)NC3CCCCC3)CC[C@H]2C)n1
Summary of the method: as §1

encorafenib = compound: COC(=O)N[C@@H](C)CNc1nccc(-c2cn(C(C)C)nc2-c2cc(Cl)cc(NS(C)(=O)=O)c2F)n1 [encorafenib]
Summary of the method: as §1

[3] = compound: COC(=O)[C@H](CCSC)NC(=O)C1=C(C=C(C=C1)NC[C@H](CS)N)C2=CC=CC=C2
Summary of the method: as §1

alisertib = compound: COc1cc(Nc2ncc3c(n2)-c2ccc(Cl)cc2C(c2c(F)cccc2OC)=NC3)ccc1C(=O)O [alisertib]
Summary of the method: as §1

[4] = compound: COc1cc2nc(-c3cc(F)ccc3O)nc(N[C@@H]3CNC[C@H]3C(C)(C)O)c2cc1OC
Summary of the method: as §1

gefitinib = compound: COc1cc2ncnc(Nc3ccc(F)c(Cl)c3)c2cc1OCCCN1CCOCC1 [gefitinib]
Summary of the method: as §1

Measured: log2 fold change

CTNNA1 (UniProt P35221)
inactive: alvocidib -0.026 | Tubastatin A 0.031 | [1] 0.002 | defactinib -0.011 | [2] 0.106 | encorafenib 0.003 | [3] -0.043 | alisertib -0.017 | [4] 0.007 | gefitinib 0.006

CWC27 (UniProt Q6UX04)
inactive: alvocidib 0.039 | Tubastatin A 0.004 | [1] 0.014 | defactinib 0.019 | [2] 0.009 | encorafenib -0.011 | [3] 0 | alisertib 0.034 | [4] -0.001 | gefitinib -0.004

CYFIP1 (UniProt Q7L576)
inactive: alvocidib -0.03 | Tubastatin A -0.049 | [1] 0.023 | defactinib -0.019 | [2] -0.039 | encorafenib -0.002 | [3] -0.02 | alisertib -0.018 | [4] -0.017 | gefitinib 0.024

CYB5R3 isoform 3 (UniProt P00387)
inactive: alvocidib 0.029 | Tubastatin A 0.051 | [1] -0.018 | defactinib -0.023 | [2] -0.041 | encorafenib 0.024 | [3] 0.051 | alisertib 0.013 | [4] 0.036 | gefitinib 0.041

CRYZL1 (UniProt O95825)
inactive: alvocidib 0.028 | Tubastatin A 0.078 | [1] 0.015 | defactinib -0.007 | [2] 0.029 | encorafenib -0.024 | [3] -0.032 | alisertib -0.047 | [4] 0.034 | gefitinib -0.015

CROCC (UniProt Q5TZA2)
inactive: alvocidib -0.233 | Tubastatin A 0.021 | [1] -0.048 | defactinib -0.019 | [2] 0.142 | encorafenib -0.04 | [3] 0.035 | alisertib -0.074 | [4] 0.126 | gefitinib 0.076

CSNK1G2 (UniProt P78368)
inactive: alvocidib -0.052 | Tubastatin A 0.001 | [1] 0.056 | defactinib 0.166 | [2] -0.06 | encorafenib 0.054 | [3] -0.132 | alisertib -0.101 | [4] 0.318 | gefitinib 0.027

CSPP1 (UniProt Q1MSJ5)
inactive: alvocidib -0.031 | Tubastatin A -0.03 | [1] -0.028 | defactinib -0.086 | [2] 0.095 | encorafenib 0.119 | [3] -0.195 | alisertib 0.027 | [4] 0.218 | gefitinib -0.054

CYHR1 (UniProt E9PJD7)
inactive: alvocidib 0.005 | Tubastatin A 0.011 | [1] 0.055 | defactinib 0.025 | [2] 0.021 | encorafenib 0.024 | [3] -0.183 | alisertib -0.018 | [4] 0.015 | gefitinib -0.003

CRIPT (UniProt Q9P021)
inactive: alvocidib 0.071 | Tubastatin A 0.11 | [1] -0.016 | defactinib 0.063 | [2] 0.044 | encorafenib -0.039 | [3] -0.029 | alisertib 0.01 | [4] -0.155 | gefitinib -0.014

CYBRD1 (UniProt Q53TN4)
inactive: alvocidib -0.007 | [1] 0.025 | defactinib -0.13 | [2] 0.146 | [4] 0.08

CTNNAL1 (UniProt Q9UBT7)
inactive: alvocidib -0.041 | [1] -0.117 | defactinib 0.017 | [2] -0.165 | encorafenib 0.002 | [3] -0.011 | alisertib 0.077 | [4] -0.036 | gefitinib -0.041

CST1 (UniProt P01037)
inactive: alvocidib 0.026 | Tubastatin A 1.37 | [1] -0.245 | encorafenib -0.02 | [3] 0.027 | alisertib -0.036 | gefitinib 0.031

CTNNB1 (UniProt P35222)
inactive: alvocidib -0.035 | Tubastatin A -0.016 | [1] -0.006 | defactinib 0.194 | [2] 0 | encorafenib 0.061 | [3] -0.062 | alisertib 0.038 | [4] -0.03 | gefitinib -0.002

CYB5A (UniProt P00167)
inactive: alvocidib -0.021 | Tubastatin A 0.059 | [1] 0.133 | [2] 0.14 | encorafenib 0.009 | [3] -0.029 | alisertib 0.048 | gefitinib -0.027

CRYM (UniProt Q14894)
inactive: alvocidib -0.061 | Tubastatin A 0.252 | defactinib 0.13 | encorafenib -0.054 | [3] 0.057 | [4] -0.058

CRLS1 (UniProt Q9UJA2)
inactive: alvocidib 0.056 | Tubastatin A 0.007 | [1] 0.068 | alisertib 0.076 | [4] -0.017 | gefitinib 0.079

CTDSP1 (UniProt Q9GZU7)
inactive: alvocidib -0.018 | Tubastatin A 0.027 | [2] -0.051

CTF1 (UniProt Q16619)
inactive: alvocidib 0.064 | Tubastatin A 0.1 | [1] -0.101 | defactinib 0.133 | [2] 0.06 | encorafenib 0.05 | [3] -0.109 | [4] -0.087

Nine successive entries already listed, quoted:
CYBRD1 (UniProt Q53TN4)
inactive: alvocidib -0.007 | [1] 0.025 | defactinib -0.13 | [2] 0.146 | [4] 0.08

CTNNAL1 (UniProt Q9UBT7)
inactive: alvocidib -0.041 | [1] -0.117 | defactinib 0.017 | [2] -0.165 | encorafenib 0.002 | [3] -0.011 | alisertib 0.077 | [4] -0.036 | gefitinib -0.041

CST1 (UniProt P01037)
inactive: alvocidib 0.026 | Tubastatin A 1.37 | [1] -0.245 | encorafenib -0.02 | [3] 0.027 | alisertib -0.036 | gefitinib 0.031

CTNNB1 (UniProt P35222)
inactive: alvocidib -0.035 | Tubastatin A -0.016 | [1] -0.006 | defactinib 0.194 | [2] 0 | encorafenib 0.061 | [3] -0.062 | alisertib 0.038 | [4] -0.03 | gefitinib -0.002

CYB5A (UniProt P00167)
inactive: alvocidib -0.021 | Tubastatin A 0.059 | [1] 0.133 | [2] 0.14 | encorafenib 0.009 | [3] -0.029 | alisertib 0.048 | gefitinib -0.027

CRYM (UniProt Q14894)
inactive: alvocidib -0.061 | Tubastatin A 0.252 | defactinib 0.13 | encorafenib -0.054 | [3] 0.057 | [4] -0.058

CRLS1 (UniProt Q9UJA2)
inactive: alvocidib 0.056 | Tubastatin A 0.007 | [1] 0.068 | alisertib 0.076 | [4] -0.017 | gefitinib 0.079

CTDSP1 (UniProt Q9GZU7)
inactive: alvocidib -0.018 | Tubastatin A 0.027 | [2] -0.051

CTF1 (UniProt Q16619)
inactive: alvocidib 0.064 | Tubastatin A 0.1 | [1] -0.101 | defactinib 0.133 | [2] 0.06 | encorafenib 0.05 | [3] -0.109 | [4] -0.087

Later entries:

CROT isoform 3 (UniProt Q9UKG9)
inactive: alvocidib -0.055 | [1] -0.114 | encorafenib 0.027 | [3] -0.053 | alisertib -0.154 | gefitinib -0.049

CUL9 (UniProt Q8IWT3)
inactive: alvocidib 0 | [1] -0.199 | alisertib -0.099 | [4] 0.032 | gefitinib -0.004

CXorf40B (UniProt Q96DE9)
inactive: alvocidib 0.011 | Tubastatin A 0.234 | defactinib 0.102 | [2] 0.048 | alisertib 0.008 | [4] -0.053 | gefitinib 0.096

CSDE1 isoform 3 (UniProt O75534)
inactive: alvocidib 0.029 | Tubastatin A -0.014 | alisertib -0.011 | [4] 0.28 | gefitinib -0.09

CSNK1A1 (UniProt P48729)
inactive: alvocidib 0.007 | Tubastatin A -0.105 | defactinib 0.077 | [2] 0.019 | encorafenib 0.081 | [3] -0.005 | [4] 0.049 | gefitinib -0.005

CRCP (UniProt O75575)
inactive: alvocidib 0.013 | Tubastatin A 0.046 | [1] 0.106 | defactinib -0.033 | encorafenib 0.009 | [3] -0.138 | alisertib -0.066 | [4] 0.008 | gefitinib 0.031

CRYAB (UniProt P02511)
inactive: alvocidib -0.007 | Tubastatin A 0.205 | [1] -0.006 | defactinib -0.006 | [2] 0.421 | encorafenib -0.014 | [3] 0.018 | alisertib 0.019 | [4] 0.153 | gefitinib 0.25

CUX1 isoform 2 (UniProt Q13948)
inactive: alvocidib -0.035 | Tubastatin A 0.016 | [1] 0.033 | defactinib 0.085 | [2] -0.028 | encorafenib 0.067 | [3] -0.022 | [4] 0.071

CTSS (UniProt P25774)
inactive: alvocidib -0.052 | [1] -0.091 | [2] 0.083 | encorafenib -0.134 | [3] -0.04

CSNK1D (UniProt P48730)
inactive: alvocidib 0.244 | Tubastatin A -0.085 | defactinib 0.103 | [2] -0.091 | encorafenib 0.041 | [3] 0.013 | alisertib 0 | [4] -0.131 | gefitinib -0.023

CREM isoform 1 (UniProt Q03060)
inactive: alvocidib 0.015 | Tubastatin A 0.052 | [2] -0.05 | alisertib 0.007 | [4] 0.035 | gefitinib -0.218

CYB561 (UniProt P49447)
inactive: alvocidib -0.123 | Tubastatin A 0.007 | [1] -0.034 | defactinib -0.03 | [2] 0.081 | encorafenib 0.039 | [3] -0.045 | [4] 0.052

CXXC1 isoform 2 (UniProt Q9P0U4)
active: [2] 0.468
inactive: alvocidib -0.003 | Tubastatin A -0.138 | [1] -0.021 | defactinib -0.004 | encorafenib -0.032 | [3] 0.152 | alisertib 0.069 | [4] 0.068 | gefitinib 0.015

CRYM-AS1 (UniProt A6NIL9)
inactive: alvocidib -0.187 | Tubastatin A 0.099 | [1] -0.075 | defactinib -0.224 | encorafenib -0.12 | [3] 0.014 | alisertib 0.021 | [4] 0.063 | gefitinib 0.164
